No constants are given. Whether binding was seen depends on the method and setting. Binding seen in cells or lysates may run through a third protein. Some entries that bind do so weakly or less than the wild type. For some assays here: Sequences can lack the tags named with a protein.
T1: SFB-tagged GSDMD (human) (UniProt P57764)
T1 sequence: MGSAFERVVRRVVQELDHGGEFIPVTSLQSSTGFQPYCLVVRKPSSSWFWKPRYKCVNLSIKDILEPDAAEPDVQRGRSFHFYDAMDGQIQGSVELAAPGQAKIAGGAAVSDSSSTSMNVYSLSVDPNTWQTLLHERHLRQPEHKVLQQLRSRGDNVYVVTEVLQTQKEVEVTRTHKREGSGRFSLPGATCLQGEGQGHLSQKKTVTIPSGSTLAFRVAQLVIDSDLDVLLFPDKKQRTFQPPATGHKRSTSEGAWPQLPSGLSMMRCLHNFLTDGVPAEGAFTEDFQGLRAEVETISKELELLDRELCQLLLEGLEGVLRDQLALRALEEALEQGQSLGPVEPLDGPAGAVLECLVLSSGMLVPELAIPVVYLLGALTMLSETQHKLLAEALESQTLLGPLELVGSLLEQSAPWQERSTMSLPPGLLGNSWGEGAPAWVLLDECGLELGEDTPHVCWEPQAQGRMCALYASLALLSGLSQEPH

By UniProt entry, the sequences of proteins in these tests, tags left out.
UniProt P05198: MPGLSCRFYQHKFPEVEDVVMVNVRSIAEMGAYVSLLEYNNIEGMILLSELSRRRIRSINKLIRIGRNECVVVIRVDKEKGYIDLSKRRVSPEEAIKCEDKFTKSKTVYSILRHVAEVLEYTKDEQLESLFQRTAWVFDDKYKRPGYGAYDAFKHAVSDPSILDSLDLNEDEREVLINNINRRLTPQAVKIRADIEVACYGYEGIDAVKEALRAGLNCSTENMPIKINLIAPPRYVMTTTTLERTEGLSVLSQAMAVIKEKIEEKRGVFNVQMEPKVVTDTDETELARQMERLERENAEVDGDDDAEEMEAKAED


Tests used:
SFB-tagged GSDMD (human) = molecular target: T1, SFB-tagged GSDMD (human); test: co-IP; cells lysed in NETN buffer with protein-phosphatase inhibitor; antibody with protein-G magnetic beads or S-protein agarose beads, overnight at 4 °C; beads washed 5 times with NETN; western blot
[1] = molecular target: eIF2α (human (endogenous in the human cell lines of the paper)) (UniProt P05198); test: as above

Molecule	binding (SFB-tagged GSDMD (human))	binding [1]
eIF2α (from UniProt P05198 1-315)	binds	–
GSDMD (protein, UniProt P57764 1-484) MGSAFERVVRRVVQELDHGGEFIPVTSLQSSTGFQPYCLVVRKPSSSWFWKPRYKCVNLSIKDILEPDAAEPDVQRGRSFHFYDAMDGQIQGSVELAAPGQAKIAGGAAVSDSSSTSMNVYSLSVDPNTWQTLLHERHLRQPEHKVLQQLRSRGDNVYVVTEVLQTQKEVEVTRTHKREGSGRFSLPGATCLQGEGQGHLSQKKTVTIPSGSTLAFRVAQLVIDSDLDVLLFPDKKQRTFQPPATGHKRSTSEGAWPQLPSGLSMMRCLHNFLTDGVPAEGAFTEDFQGLRAEVETISKELELLDRELCQLLLEGLEGVLRDQLALRALEEALEQGQSLGPVEPLDGPAGAVLECLVLSSGMLVPELAIPVVYLLGALTMLSETQHKLLAEALESQTLLGPLELVGSLLEQSAPWQERSTMSLPPGLLGNSWGEGAPAWVLLDECGLELGEDTPHVCWEPQAQGRMCALYASLALLSGLSQEPH	–	binds
